The results in this text go back to article PMC2634843.

Protein sequences, listed by entry. Tags and fused reporters are not part of them. Lines headed by an entry give the natural chain unless they say otherwise; changes in a name come on top.
UniProt P78527: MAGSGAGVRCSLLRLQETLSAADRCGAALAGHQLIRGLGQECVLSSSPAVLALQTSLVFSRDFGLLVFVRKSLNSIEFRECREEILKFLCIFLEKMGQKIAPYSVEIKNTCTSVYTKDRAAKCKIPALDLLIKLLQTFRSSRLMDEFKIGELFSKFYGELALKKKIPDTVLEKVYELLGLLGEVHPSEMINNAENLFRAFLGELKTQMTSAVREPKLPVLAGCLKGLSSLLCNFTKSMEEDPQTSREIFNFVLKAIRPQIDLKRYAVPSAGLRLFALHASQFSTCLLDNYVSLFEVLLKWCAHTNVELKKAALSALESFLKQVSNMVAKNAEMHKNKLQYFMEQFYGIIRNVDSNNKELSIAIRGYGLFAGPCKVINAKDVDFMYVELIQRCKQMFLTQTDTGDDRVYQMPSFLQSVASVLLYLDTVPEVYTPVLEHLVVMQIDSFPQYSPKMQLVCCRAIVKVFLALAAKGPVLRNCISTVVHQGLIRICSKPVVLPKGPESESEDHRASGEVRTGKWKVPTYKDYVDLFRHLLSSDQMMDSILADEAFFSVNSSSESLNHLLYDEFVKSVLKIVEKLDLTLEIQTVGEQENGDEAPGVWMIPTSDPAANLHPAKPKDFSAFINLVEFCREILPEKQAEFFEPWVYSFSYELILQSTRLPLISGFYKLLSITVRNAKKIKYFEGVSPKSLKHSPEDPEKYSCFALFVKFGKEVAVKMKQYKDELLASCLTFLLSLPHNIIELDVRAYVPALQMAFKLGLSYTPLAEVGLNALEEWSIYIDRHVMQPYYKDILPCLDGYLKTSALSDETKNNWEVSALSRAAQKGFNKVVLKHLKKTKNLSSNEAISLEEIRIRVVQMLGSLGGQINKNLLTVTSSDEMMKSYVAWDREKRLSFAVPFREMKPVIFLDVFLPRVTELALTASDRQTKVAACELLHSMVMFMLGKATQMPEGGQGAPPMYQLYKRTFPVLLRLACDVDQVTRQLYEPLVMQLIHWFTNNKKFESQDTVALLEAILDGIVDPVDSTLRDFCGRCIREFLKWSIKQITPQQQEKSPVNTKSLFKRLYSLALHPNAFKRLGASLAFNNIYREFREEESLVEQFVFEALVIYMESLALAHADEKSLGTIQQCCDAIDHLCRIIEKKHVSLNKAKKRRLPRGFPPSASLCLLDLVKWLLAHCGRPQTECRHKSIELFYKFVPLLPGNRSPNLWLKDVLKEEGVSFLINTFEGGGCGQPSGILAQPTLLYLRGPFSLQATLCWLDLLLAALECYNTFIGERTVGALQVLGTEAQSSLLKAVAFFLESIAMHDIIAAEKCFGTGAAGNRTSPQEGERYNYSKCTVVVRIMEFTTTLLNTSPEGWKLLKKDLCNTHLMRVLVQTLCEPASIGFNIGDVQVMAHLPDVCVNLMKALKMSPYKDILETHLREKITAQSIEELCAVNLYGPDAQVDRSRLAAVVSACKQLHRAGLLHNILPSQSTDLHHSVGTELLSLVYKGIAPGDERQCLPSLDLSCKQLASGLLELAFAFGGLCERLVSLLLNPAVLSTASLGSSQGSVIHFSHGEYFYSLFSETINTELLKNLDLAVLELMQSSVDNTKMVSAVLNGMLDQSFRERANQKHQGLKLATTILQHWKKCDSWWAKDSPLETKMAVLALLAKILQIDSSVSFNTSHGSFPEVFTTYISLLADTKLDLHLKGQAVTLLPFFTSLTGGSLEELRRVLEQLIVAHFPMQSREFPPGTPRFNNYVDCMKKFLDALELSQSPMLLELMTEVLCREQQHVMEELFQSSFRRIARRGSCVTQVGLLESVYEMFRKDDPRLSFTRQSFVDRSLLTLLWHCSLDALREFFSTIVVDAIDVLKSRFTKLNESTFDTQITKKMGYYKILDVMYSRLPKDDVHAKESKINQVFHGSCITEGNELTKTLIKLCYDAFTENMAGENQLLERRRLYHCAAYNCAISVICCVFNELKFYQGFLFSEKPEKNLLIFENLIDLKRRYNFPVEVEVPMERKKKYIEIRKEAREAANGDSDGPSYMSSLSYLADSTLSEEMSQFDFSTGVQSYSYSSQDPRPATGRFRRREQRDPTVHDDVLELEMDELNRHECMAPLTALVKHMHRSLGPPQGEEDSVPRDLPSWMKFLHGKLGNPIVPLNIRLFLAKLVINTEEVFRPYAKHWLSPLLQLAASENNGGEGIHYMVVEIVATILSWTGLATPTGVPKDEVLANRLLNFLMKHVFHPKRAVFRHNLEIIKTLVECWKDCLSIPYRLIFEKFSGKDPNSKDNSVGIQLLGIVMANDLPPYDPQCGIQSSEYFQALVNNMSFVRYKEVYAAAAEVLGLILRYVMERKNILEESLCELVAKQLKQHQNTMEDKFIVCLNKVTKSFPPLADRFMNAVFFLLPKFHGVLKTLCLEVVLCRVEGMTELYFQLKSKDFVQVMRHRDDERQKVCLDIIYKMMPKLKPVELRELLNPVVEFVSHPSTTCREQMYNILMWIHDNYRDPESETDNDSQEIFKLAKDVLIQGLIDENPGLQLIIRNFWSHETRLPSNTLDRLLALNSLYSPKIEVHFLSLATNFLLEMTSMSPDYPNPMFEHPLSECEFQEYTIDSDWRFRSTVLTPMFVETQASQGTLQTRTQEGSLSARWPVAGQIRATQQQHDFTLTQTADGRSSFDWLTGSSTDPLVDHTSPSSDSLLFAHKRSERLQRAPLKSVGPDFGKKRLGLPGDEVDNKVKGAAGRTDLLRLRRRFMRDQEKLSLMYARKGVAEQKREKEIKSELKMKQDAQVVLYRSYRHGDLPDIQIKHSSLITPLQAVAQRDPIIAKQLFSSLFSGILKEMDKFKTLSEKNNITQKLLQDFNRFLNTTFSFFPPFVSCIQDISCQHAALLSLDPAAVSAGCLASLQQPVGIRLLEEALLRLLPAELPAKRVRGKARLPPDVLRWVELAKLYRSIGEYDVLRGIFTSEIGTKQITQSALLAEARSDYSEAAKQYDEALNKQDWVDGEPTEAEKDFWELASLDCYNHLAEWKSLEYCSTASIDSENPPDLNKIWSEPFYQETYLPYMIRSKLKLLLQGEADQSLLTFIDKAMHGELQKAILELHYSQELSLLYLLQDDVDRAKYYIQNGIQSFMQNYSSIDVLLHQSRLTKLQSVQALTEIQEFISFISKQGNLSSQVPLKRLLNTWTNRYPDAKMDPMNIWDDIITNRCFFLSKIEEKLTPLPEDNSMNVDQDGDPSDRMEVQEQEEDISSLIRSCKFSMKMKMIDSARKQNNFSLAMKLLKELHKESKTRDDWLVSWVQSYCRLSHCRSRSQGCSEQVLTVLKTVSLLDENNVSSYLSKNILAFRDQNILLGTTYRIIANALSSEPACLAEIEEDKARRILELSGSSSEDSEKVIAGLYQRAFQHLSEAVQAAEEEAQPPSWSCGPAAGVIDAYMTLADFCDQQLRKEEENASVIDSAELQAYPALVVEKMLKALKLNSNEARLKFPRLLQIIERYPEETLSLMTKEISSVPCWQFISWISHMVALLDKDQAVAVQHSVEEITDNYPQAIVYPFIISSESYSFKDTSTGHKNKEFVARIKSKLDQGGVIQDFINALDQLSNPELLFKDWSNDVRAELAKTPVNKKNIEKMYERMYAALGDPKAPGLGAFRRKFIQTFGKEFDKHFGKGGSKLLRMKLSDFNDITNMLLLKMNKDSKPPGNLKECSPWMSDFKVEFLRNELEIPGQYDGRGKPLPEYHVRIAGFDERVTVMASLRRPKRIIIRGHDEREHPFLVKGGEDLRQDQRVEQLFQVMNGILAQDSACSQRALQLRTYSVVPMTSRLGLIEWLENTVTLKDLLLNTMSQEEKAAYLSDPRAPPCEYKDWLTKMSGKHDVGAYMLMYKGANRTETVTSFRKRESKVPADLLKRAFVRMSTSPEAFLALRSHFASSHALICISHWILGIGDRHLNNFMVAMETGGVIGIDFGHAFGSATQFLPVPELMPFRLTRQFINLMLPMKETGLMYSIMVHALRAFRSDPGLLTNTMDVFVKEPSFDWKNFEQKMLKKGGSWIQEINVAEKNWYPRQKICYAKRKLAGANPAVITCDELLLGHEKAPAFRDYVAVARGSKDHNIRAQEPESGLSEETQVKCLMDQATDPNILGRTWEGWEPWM

In assay [1] the target is endogenous DNA-PKcs (DNA-PK catalytic subunit) (human (endogenous in M059K)) (UniProt P78527). In words: co-IP; nuclear extracts of M059K cells one hour after 0, 5 or 10 Gy; immunoprecipitation of endogenous DNA-PKcs; immunoblots quantified by densitometry. Background: In western blotting, separated proteins are transferred to a membrane and probed.
For assay [2] the target is unchanged. Put plainly: co-IP; extracts of irradiated (10 Gy) M059K cells, lysis buffer with 0.5% NP-40; 1 mg total protein with 4 ug monoclonal anti-DNA-PKcs antibody at 4°C overnight, protein-A agarose; immunoblot for PP6R1 and PP6c.

No constants are given. Whether binding was seen depends on the method and setting. In cells and extracts the contact can be indirect. Some results given as binding are weak or reduced against the parent protein; the word gives no strength.

B1: endogenous PP6R1 (protein, UniProt Q9UPN7 1-881)
chain: MFWKFDLHTSSHLDTLLEREDLSLPELLDEEDVLQECKVVNRKLLDFLLQPPHLQAMVAWVTQEPPDSGEERLRYKYPSVACEILTSDVPQINDALGADESLLNRLYGFLQSTGSLNPLLASFFSKVMGILINRKTDQLVSFLRKKDDFVDLLLQHIGTSAIMDLLLRLLTCVERPQLRQDVVNWLNEEKIVQRLIEQIHPSKDENQHSNASQSLCDIIRLSREQMIQVQDSPEPDQLLATLEKQETIEQLLSNMFEGEQSQSVIVSGIQVLLTLLEPRRPRSESVTVNSFFSSVDGQLELLAQGALESTVSSVGALHALRPRLSCFHQLLLEPPKLEPLQMTWGMLAPPLGNTRLHVVKLLASALSANDAALTHELLALDVPNTMLDLFFHYVFNNFLHAQVEGCVSTMLSLGPPPDSSPETPIQNPVVKHLLQQCRLVERILTSWEENDRVQCAGGPRKGYMGHLTRVAGALVQNTEKGPNAEQLRQLLKELPSEQQEQWEAFVSGPLAETNKKNMVDLVNTHHLHSSSDDEDDRLKEFNFPEEAVLQQAFMDFQMQRMTSAFIDHFGFNDEEFGEQEESVNAPFDKTANITFSLNADDENPNANLLEICYKDRIQQFDDDEEEEDEEEAQGSGESDGEDGAWQGSQLARGARLGQPPGVRSGGSTDSEDEEEEDEEEEEDEEGIGCAARGGATPLSYPSPGPQPPGPSWTATFDPVPTDAPTSPRVSGEEELHTGPPAPQGPLSVPQGLPTQSLASPPARDALQLRSQDPTPPSAPQEATEGSKVTEPSAPCQALVSIGDLQATFHGIRSAPSSSDSATRDPSTSVPASGAHQPPQTTEGEKSPEPLGLPQSQSAQALTPPPIPNGSAPEGPASPGSQ
With B1, the binding result in assay [1] and in assay [2] was “binds” each time.

B2: endogenous PP6c (enzyme, UniProt O00743 1-305)
chain: MAPLDLDKYVEIARLCKYLPENDLKRLCDYVCDLLLEESNVQPVSTPVTVCGDIHGQFYDLCELFRTGGQVPDTNYIFMGDFVDRGYYSLETFTYLLALKAKWPDRITLLRGNHESRQITQVYGFYDECQTKYGNANAWRYCTKVFDMLTVAALIDEQILCVHGGLSPDIKTLDQIRTIERNQEIPHKGAFCDLVWSDPEDVDTWAISPRGAGWLFGAKVTNEFVHINNLKLICRAHQLVHEGYKFMFDEKLVTVWSAPNYCYRCGNIASIMVFKDVNTREPKLFRAVPDSERVIPPRTTTPYFL
As for B2, the binding result in assay [1] and in assay [2] was “binds” each time.
